US20130338214A1
Results are given in words; binding and its absence hold for the method and conditions named. Some binding calls cover weakened binding; strength is not graded here.

Columns and labels:
[1] = target: EGFR of ROR1-introduced MSTO-211H cells (UniProt P00533); experiment: IP-WB, ROR1-introduced MSTO-211H cells
[2] = target: EGFR of ROR1-introduced MSTO-211H cells (UniProt P00533); experiment: IP-WB, lysate of ROR1-stably expressing cells (FIG. 7c)

binding [1]: binds
binding [2]: binds
Substance: ROR1 (receptor tyrosine kinase-like orphan receptor 1), full-length, untagged (from UniProt Q01973 30-937)
